Test results reported in US9224959B2, “Method for producing a pi-electron conjugated compound” (Ricoh Company, Ltd., priority 2009, dated 2015).
Some of these results come from one statement about several compounds together.

Assay: Evaluation of solubility (saturated solution after reflux and cooling to room temperature)
Assay type: physicochemical
Settings: toluene, THF, anisole, chloroform; summary of Table 1
Protocol: The mixture was further stirred for 1 hour and left to stand for 16 hours, and the supernatant was filtered using a 0.2 μm-PTFE filter, to thereby obtain a saturated solution. The saturated solution was dried under reduced pressure, and the solubility of the precursor in each solvent was calculated.
In the case of `c1ccc2cc(-c3cc4sc(-c5ccc6ccccc6c5)cc4s3)ccc2c1` [Compound 17], the “Solubility to the solvents of Table 1” value is reported as ≤ 0.005 % by mass.
With `c1ccc2cc(-c3cc4cc5sc(-c6ccc7ccccc7c6)cc5cc4s3)ccc2c1` [Compound 18] the “Solubility to the solvents of Table 1” value was ≤ 0.005 % by mass.
For `c1ccc2cc(-c3ccc4c(c3)sc3c5ccc(-c6ccc7ccccc7c6)cc5sc43)ccc2c1` [Compound 19], the “Solubility to the solvents of Table 1” value was ≤ 0.005 % by mass.

Assay: Thermal and storage stability in solution under reflux of the solvent
Assay type: physicochemical
Settings: reflux of toluene, THF, anisole or chloroform
In the case of `CC(C)(C)C(=O)OC1CCC(OC(=O)C(C)(C)C)c2cc(-c3cc4sc(-c5ccc6c(c5)C(OC(=O)C(C)(C)C)CCC6OC(=O)C(C)(C)C)cc4s3)ccc21` (stereo not shown) [Compound 12], the “Elimination product (Compounds 17 to 19) formed under reflux of the solvent” value (shortened to “Elimination product”) is reported as “could not be confirmed”.
For `O=C(CC(F)(F)F)OC1CCC(OC(=O)CC(F)(F)F)c2cc(-c3cc4sc(-c5ccc6c(c5)C(OC(=O)CC(F)(F)F)CCC6OC(=O)CC(F)(F)F)cc4s3)ccc21` (stereo not shown) [Compound 13], the “Elimination product” value was “could not be confirmed”.
For `O=C(CC(F)(F)F)OC1CCC(OC(=O)CC(F)(F)F)c2cc(-c3cc4cc5sc(-c6ccc7c(c6)C(OC(=O)CC(F)(F)F)CCC7OC(=O)CC(F)(F)F)cc5cc4s3)ccc21` (stereo not shown) [Compound 14], the “Elimination product” value was “could not be confirmed”.
With `O=C(CC(F)(F)F)OC1CCC(OC(=O)CC(F)(F)F)c2cc(-c3ccc4c(c3)sc3c5ccc(-c6ccc7c(c6)C(OC(=O)CC(F)(F)F)CCC7OC(=O)CC(F)(F)F)cc5sc43)ccc21` (stereo not shown) [Compound 16] the “Elimination product” value was “could not be confirmed”.
